PubChem BioAssay AID686938 | Drosophila RNAi Screening Center, 2013
In all, the deposit lists about 23,000 reagents; below is an unselected part of those that have a named target and a result. In the full data, 75 (0.33%) got an active call. 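Raw plate signals without normalisation; calls rest on plate z-scores that were not deposited; ratio present for only 364 wells.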 Unmarked entries are inactive. Reagents against one gene are numbered here. Names joined by + are all predicted targets of the reagent. Reagent sequences are not shown. Not stated in the record: the dose of the treatment.

Test: 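Knock-downs reducing store-operated calcium influx in Drosophila cells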 (primary screen)
Cell system: Drosophila S2R+ cells
Reagent: long dsRNA against Drosophila genes, about 0.25 µg dsRNA per well, roughly 10,000 cells
Time to read-out: 5 days of knock-down before the calcium assay
Challenge: thapsigargin (SERCA pump blocker) to empty calcium stores; entry signal taken 4 min after adding it
Measured: 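Per-well fluo-4 fluorescence in two replicates, unnormalised, measured in resting cells and 4 min after store depletion by the SERCA blocker thapsigargin; ratio of the two present in few wells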
Scale: calcium entry signal: higher = stronger calcium signal after store depletion; resting calcium signal: higher = higher resting calcium signal
Units: calcium entry signal in fluorescence units; resting calcium signal in fluorescence units
Hit rule: 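Hit if the duplicate-averaged plate z-score for entry over resting signal is under −3; wells with weak total dye signal (Fmax z < −2) or more than 5 off-targets removed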
Calls: active = strongly reduced calcium entry; inactive = no strong reduction

CG43897 #1 — calcium entry signal, replicate 1 = 3.11e7; calcium entry signal, replicate 2 = 5.09e7; resting calcium signal, replicate 1 = 1.68e7; resting calcium signal, replicate 2 = 2.35e7
CG43897 #2 — calcium entry signal, replicate 1 = 3.13e7; calcium entry signal, replicate 2 = 4.78e7; resting calcium signal, replicate 1 = 1.79e7; resting calcium signal, replicate 2 = 2.35e7
CG43897 #3 — calcium entry signal, replicate 1 = 3.10e7; calcium entry signal, replicate 2 = 4.72e7; resting calcium signal, replicate 1 = 1.65e7; resting calcium signal, replicate 2 = 2.16e7
CG43897 #4 — calcium entry signal, replicate 1 = 6.32e7; calcium entry signal, replicate 2 = 4.26e7; resting calcium signal, replicate 1 = 3.14e7; resting calcium signal, replicate 2 = 1.94e7
Mi-2 + Su(Tpl) — calcium entry signal, replicate 1 = 3.27e7; calcium entry signal, replicate 2 = 3.39e7; resting calcium signal, replicate 1 = 1.74e7; resting calcium signal, replicate 2 = 1.57e7
Skp2 + CG1103 #1 — calcium entry signal, replicate 1 = 4.73e7; calcium entry signal, replicate 2 = 5.04e7; resting calcium signal, replicate 1 = 2.09e7; resting calcium signal, replicate 2 = 3.35e7
Skp2 + CG1103 #2 — calcium entry signal, replicate 1 = 3.84e7; calcium entry signal, replicate 2 = 4.97e7; resting calcium signal, replicate 1 = 1.93e7; resting calcium signal, replicate 2 = 2.62e7
lncRNA:CR40629 — calcium entry signal, replicate 1 = 2.65e7; calcium entry signal, replicate 2 = 2.93e7; resting calcium signal, replicate 1 = 1.35e7; resting calcium signal, replicate 2 = 1.29e7
CG7140 — calcium entry signal, replicate 1 = 3.01e7; calcium entry signal, replicate 2 = 5.99e7; resting calcium signal, replicate 1 = 1.52e7; resting calcium signal, replicate 2 = 2.66e7
ND-B16.6 #1 — calcium entry signal, replicate 1 = 2.21e7; calcium entry signal, replicate 2 = 2.65e7; resting calcium signal, replicate 1 = 1.03e7; resting calcium signal, replicate 2 = 1.30e7
ND-B16.6 #2 — calcium entry signal, replicate 1 = 3.36e7; calcium entry signal, replicate 2 = 3.24e7; resting calcium signal, replicate 1 = 2.04e7; resting calcium signal, replicate 2 = 1.60e7
IFT57 — calcium entry signal, replicate 1 = 3.28e7; calcium entry signal, replicate 2 = 3.66e7; resting calcium signal, replicate 1 = 1.67e7; resting calcium signal, replicate 2 = 1.69e7
CG14212 — calcium entry signal, replicate 1 = 3.32e7; calcium entry signal, replicate 2 = 3.86e7; resting calcium signal, replicate 1 = 1.90e7; resting calcium signal, replicate 2 = 1.78e7
CG13248 — calcium entry signal, replicate 1 = 2.42e7; calcium entry signal, replicate 2 = 3.88e7; resting calcium signal, replicate 1 = 1.16e7; resting calcium signal, replicate 2 = 1.71e7
Su(z)12 — calcium entry signal, replicate 1 = 3.60e7; calcium entry signal, replicate 2 = 5.96e7; resting calcium signal, replicate 1 = 1.74e7; resting calcium signal, replicate 2 = 2.91e7
CG7300 — calcium entry signal, replicate 1 = 4.46e7; resting calcium signal, replicate 1 = 2.07e7
CG11050 — calcium entry signal, replicate 1 = 4.53e7; resting calcium signal, replicate 1 = 3.04e7
eIF3h — calcium entry signal, replicate 1 = 2.78e7; resting calcium signal, replicate 1 = 1.55e7
Vha55 — calcium entry signal, replicate 1 = 3.92e7; calcium entry signal, replicate 2 = 5.34e7; resting calcium signal, replicate 1 = 2.32e7; resting calcium signal, replicate 2 = 3.03e7
FeCH — calcium entry signal, replicate 1 = 3.05e7; calcium entry signal, replicate 2 = 3.19e7; resting calcium signal, replicate 1 = 1.30e7; resting calcium signal, replicate 2 = 1.67e7
vih — calcium entry signal, replicate 1 = 1.67e7; calcium entry signal, replicate 2 = 2.52e7; resting calcium signal, replicate 1 = 1.13e7; resting calcium signal, replicate 2 = 1.43e7

In a second layout: 2 of the entries above.
CG13248
- calcium entry signal, replicate 1: 2.42e7
- calcium entry signal, replicate 2: 3.88e7
- resting calcium signal, replicate 1: 1.16e7
- resting calcium signal, replicate 2: 1.71e7

Su(z)12
- calcium entry signal, replicate 1: 3.60e7
- calcium entry signal, replicate 2: 5.96e7
- resting calcium signal, replicate 1: 1.74e7
- resting calcium signal, replicate 2: 2.91e7
